The values that follow come from the supplement of paper PMC5770031.

The other results are listed elsewhere or left out. This data set is noisy: repeats of one test often differ as much as different tests do.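 ATM8/balancer (normal ATM) heterozygous flies were crossed on treated food; parents laid eggs 5–6 days, offspring developed ~12 days, so parents and larvae ingested compound. Readout: fraction of emerged adults homozygous for ATM8 versus 2% DMSO controls. Compounds were neutral at 10–20% homozygotes, harmful below 10%, helpful above 20%.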 Numbered stars: 1 amine (or outer) side, 2 acyl side, 3 side chain; on linkers, the order of the positions; unused ones are H or OH. Bridge positions count the residues as written; N and C are the ends. Square brackets hold non-standard residues; d marks the D form. Peptide text beside a SMILES is read from it. * marks the point of attachment. X1 = NC1=N[C@@H]([C@H](N[*:1])C(=O)[*:2])C[C@H](O)N1; ΔAla(Z-3-ureido) = NC(=O)N/C=C(\N)C(=O)O; β3hOrn = NCCC[C@H](N)CC(=O)*; Dap = NC[C@H](N)C(=O)O

The assay relates to Drosophila melanogaster ATM8 (temperature-sensitive ATM allele). In words: fraction of eclosed F1 progeny that are homozygous ATM8 (rescue of developmental lethality); higher = more rescue of ATM8 developmental lethality; extreme values may be limits of the assay. As to conditions: compound concentration applied to food 0.2 mM; 21 °C.
As for `CC(=O)O[C@H]1C[C@@H](OC(C)=O)C(C)(C)C2CC(=O)[C@]3(C)C(CC[C@@]4(C)[C@H](c5ccoc5)OC(=O)[C@H]5O[C@]543)[C@]21C` (stereo partly specified), the “fraction of eclosed F1 progeny that are homozygous ATM8” value (shortened to “fraction”) came to 0.0943. Under `OCCN1C[C@H](O)[C@@H](O)[C@H](O)[C@H]1CO` stands 0.154.

As for `CC(C)C(=O)Nc1ccc([N+](=O)[O-])c(C(F)(F)F)c1`, the “fraction” value amounted to 0.0645. Then `Cn1cnc([N+](=O)[O-])c1Sc1ncnc2[nH]cnc12`, with 0.16.

As to `COc1cc2c(cc1OC)-c1c(oc3c4c(ccc3c1=O)OC(C(C)C)C4)CO2` (stereo unspecified), the “fraction” value was determined as 0.122. As for `NCC[C@H](O)C(=O)N[C@@H]1C[C@H](N)[C@@H](O[C@H]2O[C@H](CN)[C@@H](O)[C@H](O)[C@H]2O)[C@H](O)[C@H]1O[C@H]1O[C@H](CO)[C@@H](O)[C@H](N)[C@H]1O`, the “fraction” value turned out to be 0.114.

Regarding `COc1ccc2c(c1)OC[C@@H](Cc1ccc(OC)c(OC)c1)[C@H]2O`, the “fraction” value worked out at 0.208. Turning to `Cc1cc2nc3c(=O)[nH]c(=O)nc-3n(CC(O)C(O)C(O)COP(=O)(O)O)c2cc1C` (stereo unspecified), the “fraction” value worked out at 0.263.

Consider `COc1cc(/C=C/C(=O)CC(=O)/C=C/c2ccc(O)c(OC)c2)ccc1O`, for which the “fraction” value worked out at 0.25. Under `O=C(O)CSCC(=O)NC1CCSC1=O` (stereo unspecified) stands 0.0889.

As to `CNC(=O)Oc1ccc2c(c1)[C@]1(C)CCN(C)[C@@H]1N2C`, the “fraction” value stood at 0. Then `CC(C)=CCOc1cc2oc(=O)ccc2cc1O`, with 0.0789; and `C/C=C1\[C@H]2C=C(C)C[C@]1(N)c1ccc(=O)[nH]c1C2`, with 0.114; and `C[N+](C)(C)CCO.[Cl-]`, with 0. `COc1cccc(-c2cc(=O)c3ccc(OC)cc3o2)c1`: the “fraction” value turned out to be 0.214.

In the case of `CN1CCC(OC(c2ccccc2)c2ccccc2)CC1`, the “fraction” value was 0. On to `O=C(Oc1cccc2cccnc12)c1ccccc1`, for which the “fraction” value was determined as 0. As to `CN(C)C(=O)Oc1cccc([N+](C)(C)C)c1`, the “fraction” value is 0.173. Under `CN1[C@H]2C[C@H](OC(=O)[C@H](CO)c3ccccc3)C[C@@H]1[C@@H](O)C2` stands 0.211; under `Cc1cc(O)c2c(c1)C(=O)c1cc(O)cc(O)c1C2=O`, 0.0889; under `Nc1nc(O)c2ncn(CCC(CO)CO)c2n1`, 0.176. Under `Fc1ccc([C@@H]2CCNC[C@H]2COc2ccc3c(c2)OCO3)cc1` stands 0.271; under `CN(C/C=C/C#CC(C)(C)C)Cc1cccc2ccccc12`, 0. Under `O=C(NC1CCCCC1)NC1CCCCC1` stands 0.0789; under `NCCC[C@H](N)CC(=O)N[C@H]1CNC(=O)[C@H]([C@H]2C[C@H](O)NC(N)=N2)NC(=O)/C(=C/NC(N)=O)NC(=O)[C@H](CO)NC(=O)[C@H](CO)NC1=O` (β3hOrn-[Dap]SS[ΔAla(Z-3-ureido)][X1]; lactam 1-C), 0.0476. `NC(CO)C(=O)NNCc1ccc(O)c(O)c1O` (stereo unspecified): the “fraction” value stood at 0.135.

Consider `C=C1CCC2C(CC2(C)C)C(=O)CCC1O` (stereo unspecified), for which the “fraction” value amounted to 0.04. Then `C[n+]1ccccc1C=NO`, with 0.143; and `CC[n+]1c(-c2ccccc2)c2cc(N)ccc2c2ccc(N)cc21`, with 0.0741; and `O=C1OC(CN2CCOCC2)CN1/N=C/c1ccc([N+](=O)[O-])o1` (stereo unspecified), with 0.256.

For the compound `O=C(O)[C@]1(O)C[C@@H](O)[C@@H](O)[C@H](O)C1`, the “fraction” value is 0.0333. Regarding `CNCCCN1c2ccccc2CCc2ccccc21`, the “fraction” value is 0.0488. Then `CC1(C)C2CC(=O)[C@]3(C)C(CC[C@@]4(C)[C@H](c5ccoc5)OC(=O)[C@H]5O[C@]543)[C@@]2(C)C(=O)C[C@H]1O` (stereo partly specified), with 0.17; and `Cc1cccc(Nc2ccccc2C(=O)O)c1C`, with 0.231; and `CCC(C)n1ncn(-c2ccc(N3CCN(c4ccc(OCC5COC(Cn6cncn6)(c6ccc(Cl)cc6Cl)O5)cc4)CC3)cc2)c1=O` (stereo unspecified), with 0.158.

Regarding `COc1ccc(/C=C/C(=O)c2cc(O)ccc2O)cc1`, the “fraction” value was determined as 0.232. Take `C[n+]1ccccc1/C=N/O`: the “fraction” value turned out to be 0.0455. `O=C(O)CCNC(=O)c1ccc(/N=N/c2ccc(O)c(C(=O)O)c2)cc1`: the “fraction” value stood at 0.0185. Under `C[C@H]1[C@H](OC(=O)CCC(=O)O)O[C@@H]2O[C@@]3(C)CC[C@H]4[C@H](C)CC[C@@H]1[C@@]24OO3` stands 0.0784. Under `C=CCSCC=C` stands 0.174; under `NCC(=O)c1ccccc1`, 0.0656; under `CCOc1ccc(NC(=O)CC(C)O)cc1` (stereo unspecified), 0.1. Then `CC(=O)OCC1=C(C(=O)O)N2C(=O)[C@@H](NC(=O)Cc3cccs3)[C@H]2SC1`, with 0.0455; and `CCN(CC)CCNC(=O)COc1ccc(OC)cc1`, with 0.143; and `Cc1nc2n(c(=O)c1CCN1CCC(c3noc4cc(F)ccc34)CC1)CCCC2O` (stereo unspecified), with 0.

On to `CC1(C)S[C@@H]2[C@H](NC(=O)Cc3ccccc3)C(=O)N2[C@H]1C(=O)O`, for which the “fraction” value is 0.231. Regarding `CCCCc1nc(Cl)c(CO)n1Cc1ccc(-c2ccccc2-c2nnn[nH]2)cc1`, the “fraction” value came out at 0.222. Then `COC(=O)C[C@H]1C(C)(C)[C@@H](OC(C)=O)[C@@H]2CC3C4CC(=O)O[C@@H](c5ccoc5)[C@]4(C)CCC3[C@@]1(C)C2=O` (stereo partly specified), with 0.0508; and `C=CCCCCCCCCC(=O)O`, with 0; and `COc1c(O)cc2oc3cc(O)c(CC=C(C)C)c(O)c3c(=O)c2c1CC=C(C)C` [alpha-MANGOSTIN], with 0.474. Turning to `CC1(C)C[C@@H]2C(=O)CC[C@H]3O[C@]3(C)CC[C@H]21`, the “fraction” value was found to be 0.167. `O=C1CCC(N2C(=O)c3ccccc3C2=O)C(=O)N1` (stereo unspecified): the “fraction” value came to 0.159. Then `CC(C)CCCC(C)C1CCC2C3CCC4CC(O)CCC4(C)C3CCC12C` (stereo not drawn) [5alpha-CHOLESTANOL], with 0.231; and `O=c1c(O)c(-c2ccc(O)c(O)c2)oc2c(O)c(O)cc(O)c12`, with 0.069. Then `COc1ccccc1N1CCN(CCCNc2cc(=O)n(C)c(=O)n2C)CC1`, with 0.255. On to `CC(C)[C@H](N)C(=O)O`, for which the “fraction” value was found to be 0.0952. For `COc1ccc(-c2cc(=O)c3c(O)cc(OC)cc3o2)cc1`, the “fraction” value was found to be 0.186. Then `O=C(/C=C/C=C/c1ccc2c(c1)OCO2)N1CCCCC1`, with 0.133; and `CCC(=O)OCC(=O)[C@@]1(OC(=O)CC)[C@@H](C)C[C@H]2[C@@H]3CCC4=CC(=O)C=C[C@]4(C)[C@@]3(Cl)[C@@H](O)C[C@@]21C`, with 0.0976; and `CCN(CC)Cc1cc(Nc2ccnc3cc(Cl)ccc23)ccc1O`, with 0.0741. Under `CCN(CC)S(=O)(=O)c1ccc(C(=O)O)cc1` stands 0.0566; under `CN1CCc2cc3c(cc2C1O)OCO3` (stereo unspecified), 0.218. On to `CC(C)NCC(O)c1cc(O)cc(O)c1` (stereo unspecified), for which the “fraction” value turned out to be 0.176. Then `O=C(O)CN(CCN(CC(=O)O)CC(=O)O)CCN(CC(=O)O)CC(=O)O`, with 0.185.

Regarding `C#CCN(C)CCCOc1ccc(Cl)cc1Cl`, the “fraction” value amounted to 0.19.

Take `COc1ccc(-c2cc(=O)c3c(OC)c(OC)c(OC)cc3o2)cc1OC`: the “fraction” value stood at 0.0833.
